For at least one entry, the source does not settle the construct or the ends of the probe. For some of these results: No signal at the amounts used counts as a negative. Where a protein sequence is shown, tags need not be part of it. For some of these results: The comparison behind a weaker result is the experiment's own reference, which may not be listed here. For some of these results: At least one verdict was read from the data and is not stated in words by the source.
Tests used:
[1] = molecular target: T1, GST-DBR1 (Arabidopsis thaliana (Col-0)) (UniProt Q94K01); assay: EMSA; conditions: 2 ug tRNA, R-EMSA: 20 ul, binding buffer of RNA EMSA kit (Thermo), 5% glycerol, 2 nM biotin-RNA, 30 min, 6.5% native PAGE, pH and temperature not stated, recombinant protein, protein details: GST, label: 5' biotin (probe), unlabeled as cold competitor, probe letters rebuilt from the primers and the genome
T1 sequence (looked up, limits assumed): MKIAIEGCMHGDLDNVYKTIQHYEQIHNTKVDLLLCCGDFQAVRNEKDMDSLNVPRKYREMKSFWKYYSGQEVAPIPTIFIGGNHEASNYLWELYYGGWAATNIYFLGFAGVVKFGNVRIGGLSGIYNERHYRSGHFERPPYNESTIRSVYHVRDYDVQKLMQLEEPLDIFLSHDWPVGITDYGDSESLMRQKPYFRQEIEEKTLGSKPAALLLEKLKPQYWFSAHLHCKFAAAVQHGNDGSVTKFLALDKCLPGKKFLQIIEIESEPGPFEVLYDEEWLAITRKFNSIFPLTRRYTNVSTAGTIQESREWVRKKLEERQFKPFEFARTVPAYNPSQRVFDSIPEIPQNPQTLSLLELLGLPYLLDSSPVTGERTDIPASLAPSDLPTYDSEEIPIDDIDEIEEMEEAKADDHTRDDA

[2] = molecular target: T2, MBP-HYL1-D1D2 (Arabidopsis thaliana) (UniProt O04492); assay: EMSA; conditions: 2 ug tRNA, R-EMSA: 20 ul, binding buffer of RNA EMSA kit (Thermo), 5% glycerol, 2 nM biotin-RNA, 30 min, 6.5% native PAGE, pH and temperature not stated, recombinant protein, protein details: MBP, label: 5' biotin (probe), unlabeled as cold competitor, probe letters rebuilt from the primers and the genome
T2 sequence (looked up, limits assumed): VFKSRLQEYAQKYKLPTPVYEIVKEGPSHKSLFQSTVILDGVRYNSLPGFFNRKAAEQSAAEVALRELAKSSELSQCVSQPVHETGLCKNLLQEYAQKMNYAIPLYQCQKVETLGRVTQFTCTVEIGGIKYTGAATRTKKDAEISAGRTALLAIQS

[3] = molecular target: T2, MBP-HYL1-D1D2 (Arabidopsis thaliana); assay: competition with a labelled probe; conditions: R-EMSA: 20 ul, binding buffer of RNA EMSA kit (Thermo), 5% glycerol, 2 ug tRNA, 2 nM biotin-RNA, 30 min, 6.5% native PAGE, pH and temperature not stated, recombinant protein, protein details: MBP, probe letters rebuilt from the primers and the genome

Sequence | binding result [1] | binding result [2] | binding result ([3]; cold pri-miR167b as positive control competitor, label: 5' biotin (probe), unlabeled as cold competitor) | binding result ([3]; cold competitor versus biotin-pri-miR167b, minor competition)
GGAUUUCUCCACUUCUUGAGCUUCCGUUUUUUACAAUUAUUGAUCCGUCAAAUAUGUGAGAUUUGCACAACUUGUUGCUCAGGUAUUUUGAAGACAAGUCCACAAGGGAACAAGUGAAGCUGCCAGCAUGAUCUAUCUUUGGUUAAGAGAUGAAUGUGGAAACAUAUUGCUUAAACCCAAGCUAGGUCAUGCUCUGACAGCCUCACUCCUUCCUGGUUUAGGACCAUUCAUUGAUGAAGCAUUCCACAUGCCGAUUGAAAGAAAAAUAAGAGUCCCGAACGCACACAGUUGACU [pri-miR167b] | no binding | binds | binds | –
GGGAGAAUGGCCUUAUCUUCUCUCCUCAGAUCUGCCGCCACUUCCGCCGCAGCUCCUCGUGUCGAGCUUUAUCCAUCGUCAUCGUACAAUCAUUCUCAGGUAUUAAACGUUUUCGUUUCUCACUCUUGCGUUUG [GAPDH linear RNA] | – | – | – | binds more weakly

Reference: article PMC5147768
